{"source": "patent US12016935B2", "about": "(Washington University, priority 2016, dated 2024)", "experiment": "peptide synthesis", "conditions": "conjugation step, reverse phase HPLC with UV/VIS detector, C-18 column"}
{"substance": "ECL1i (DLeu-Gly-DThr-DPhe-DLeu-DLys-DCys)", "values": [{"measurement": "final HPLC purity", "result": 99, "unit": "%"}]}
